# Measured values: PMC10175918 (Communications Biology, 2023)
# The chains behind the UniProt entries cited, without tags or fusion partners. Where a name states a change or a piece, a line headed by the entry shows the natural chain unless it says otherwise.
# UniProt O95399: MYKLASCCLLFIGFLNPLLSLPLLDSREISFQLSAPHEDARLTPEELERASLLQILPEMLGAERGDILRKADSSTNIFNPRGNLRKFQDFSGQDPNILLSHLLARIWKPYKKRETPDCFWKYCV
# UniProt P49407: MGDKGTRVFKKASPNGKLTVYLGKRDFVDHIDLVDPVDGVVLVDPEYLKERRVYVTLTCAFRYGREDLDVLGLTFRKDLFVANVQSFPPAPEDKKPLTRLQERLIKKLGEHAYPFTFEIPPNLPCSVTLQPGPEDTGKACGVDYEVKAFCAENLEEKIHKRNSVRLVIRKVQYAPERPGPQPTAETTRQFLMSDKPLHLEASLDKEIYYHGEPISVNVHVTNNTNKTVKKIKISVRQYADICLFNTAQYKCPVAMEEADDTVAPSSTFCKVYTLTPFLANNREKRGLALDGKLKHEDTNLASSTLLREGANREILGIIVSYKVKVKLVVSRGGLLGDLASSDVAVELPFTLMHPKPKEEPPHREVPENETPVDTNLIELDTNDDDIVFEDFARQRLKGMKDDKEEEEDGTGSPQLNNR
# These are yes or no findings as the source states them, for the method shown. Binding seen in cells or lysates may run through a third protein. Some entries that bind do so weakly or less than the wild type. Tags and fused reporters may be left off the sequences shown.
# T1: ssHA-FLAG-UTS2R-SmBiT (human) (UniProt Q9UKP6)
# T1 sequence: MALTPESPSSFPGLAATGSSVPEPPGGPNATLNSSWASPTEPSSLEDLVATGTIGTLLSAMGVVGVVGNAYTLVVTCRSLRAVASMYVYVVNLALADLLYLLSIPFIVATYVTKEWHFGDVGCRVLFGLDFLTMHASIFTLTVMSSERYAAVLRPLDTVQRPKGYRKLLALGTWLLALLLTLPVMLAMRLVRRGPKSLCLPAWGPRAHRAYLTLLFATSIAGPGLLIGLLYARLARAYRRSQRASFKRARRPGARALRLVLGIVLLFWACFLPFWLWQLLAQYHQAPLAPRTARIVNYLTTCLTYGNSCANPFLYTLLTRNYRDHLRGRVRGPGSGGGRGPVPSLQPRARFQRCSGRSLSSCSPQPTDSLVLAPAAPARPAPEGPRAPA
# T2: biotin–UT2 peptide (synthetic urotensin-II peptide with an N-terminal biotin tag and a GSSG spacer) (UniProt O95399)
# T2 sequence (peptide, biotin on the N-terminus): GSSGETPDCFWKYCV
# Key:
# [1] = biological target: T1, ssHA-FLAG-UTS2R-SmBiT (human); assay: split reporter; NanoBiT β-arrestin recruitment in HEK293A cells with ssHA-FLAG-UTS2R-SmBiT and LgBiT-β-arrestin; stimulated with UT2; luminescence over 5–10 min, room temperature
# [2] = biological target: T1, ssHA-FLAG-UTS2R-SmBiT (human); assay: condition: only cells stimulated with remdesivir instead of UT2; split reporter; NanoBiT β-arrestin recruitment in HEK293A cells with ssHA-FLAG-UTS2R-SmBiT and LgBiT-β-arrestin; stimulated with remdesivir; luminescence over 5–10 min, room temperature
# [3] = biological target: T2, biotin–UT2 peptide (synthetic urotensin-II peptide with an N-terminal biotin tag and a GSSG spacer); assay: pull-down; crude membrane fraction of HEK293 cells expressing FLAG-UTS2R (50 mM HEPES pH 7.5, 250 mM NaCl, 2 mM EDTA) incubated with or without remdesivir or urantide, then with biotin-UT2 overnight; solubilised with DDM; pulled down on streptavidin magnetic beads (M280); anti-FLAG western blot; only the target purified
Molecule,binding [1],binding [2],binding [3]
LgBiT-β-arrestin 1 (from UniProt P49407 1-418),binds,no binding,–
"FLAG-UTS2R (urotensin-II receptor) (receptor, UniProt Q9UKP6 1-389) MALTPESPSSFPGLAATGSSVPEPPGGPNATLNSSWASPTEPSSLEDLVATGTIGTLLSAMGVVGVVGNAYTLVVTCRSLRAVASMYVYVVNLALADLLYLLSIPFIVATYVTKEWHFGDVGCRVLFGLDFLTMHASIFTLTVMSSERYAAVLRPLDTVQRPKGYRKLLALGTWLLALLLTLPVMLAMRLVRRGPKSLCLPAWGPRAHRAYLTLLFATSIAGPGLLIGLLYARLARAYRRSQRASFKRARRPGARALRLVLGIVLLFWACFLPFWLWQLLAQYHQAPLAPRTARIVNYLTTCLTYGNSCANPFLYTLLTRNYRDHLRGRVRGPGSGGGRGPVPSLQPRARFQRCSGRSLSSCSPQPTDSLVLAPAAPARPAPEGPRAPA",–,–,binds
